We go through 1 compound from patent publication US8785682B2, “Tetranor PGDM: a biomarker of PGD2 synthesis in vivo” (The Trustees of the University of Pennsylvania, priority 2007, dated 2014).

This data set relates to biosynthesis of PGD2. As to the kind of experiment: Urinary tetranor PGDM in PGD synthase knockout mice. The format is in vivo, mouse. To be noted: mean.

Molecules are shown by their SMILES.

For the compound `O=C(O)CCCCC(=O)CC[C@H]1C(=O)C[C@H](O)[C@@H]1CCC(=O)O` [tetranor PGDM, 11,15-dioxo-9α-hydroxy-2,3,4,5-tetranor-prostan-1,20-dioic acid], under “H-PGDS knockout mice, 24 h urine, P<0.0001 vs wild type”, the “urinary tetranor PGDM, deletion of H-PGDS” value came out at 1.0 ng/mg creatinine. Also, the “urinary tetranor PGDM, deletion of L-PGDS” value (L-PGDS knockout mice, 24 h urine, p<0.05 vs wild type) came to 5.1 ng/mg creatinine. The “urinary tetranor PGDM, wild type mice” value (wild type C57/BL6, 24 h urine) is recorded as 8.6 ng/mg creatinine.
